Measurements: publication PMC11989279
These are yes or no findings as the source states them, for the method shown. In cells and extracts the contact can be indirect.

The chains behind the UniProt entries cited, without tags or fusion partners. Where a name states a change or a piece, a line headed by the entry shows the natural chain unless it says otherwise.
UniProt P63010: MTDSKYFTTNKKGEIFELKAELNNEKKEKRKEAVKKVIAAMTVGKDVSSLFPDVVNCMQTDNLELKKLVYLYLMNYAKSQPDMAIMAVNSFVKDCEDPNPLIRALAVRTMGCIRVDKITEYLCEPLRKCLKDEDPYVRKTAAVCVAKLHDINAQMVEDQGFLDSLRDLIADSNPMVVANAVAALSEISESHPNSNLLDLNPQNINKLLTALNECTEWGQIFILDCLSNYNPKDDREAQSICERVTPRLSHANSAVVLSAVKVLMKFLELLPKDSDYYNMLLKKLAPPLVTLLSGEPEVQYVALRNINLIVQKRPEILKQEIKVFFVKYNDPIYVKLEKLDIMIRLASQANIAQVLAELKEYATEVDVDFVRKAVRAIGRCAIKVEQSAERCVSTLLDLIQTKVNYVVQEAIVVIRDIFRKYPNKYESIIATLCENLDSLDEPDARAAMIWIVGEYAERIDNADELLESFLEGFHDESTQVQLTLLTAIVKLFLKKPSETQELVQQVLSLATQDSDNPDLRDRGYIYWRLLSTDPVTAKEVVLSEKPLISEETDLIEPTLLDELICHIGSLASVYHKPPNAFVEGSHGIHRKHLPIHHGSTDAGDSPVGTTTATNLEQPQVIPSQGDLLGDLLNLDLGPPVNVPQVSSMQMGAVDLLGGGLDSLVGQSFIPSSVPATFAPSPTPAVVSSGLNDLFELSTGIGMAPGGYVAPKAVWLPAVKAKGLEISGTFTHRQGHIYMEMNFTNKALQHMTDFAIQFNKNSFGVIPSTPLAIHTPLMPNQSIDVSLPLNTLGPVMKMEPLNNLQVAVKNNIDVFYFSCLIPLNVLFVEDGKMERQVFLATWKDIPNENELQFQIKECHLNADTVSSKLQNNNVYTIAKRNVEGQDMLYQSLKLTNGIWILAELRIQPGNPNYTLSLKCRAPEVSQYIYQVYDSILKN
UniProt P25098: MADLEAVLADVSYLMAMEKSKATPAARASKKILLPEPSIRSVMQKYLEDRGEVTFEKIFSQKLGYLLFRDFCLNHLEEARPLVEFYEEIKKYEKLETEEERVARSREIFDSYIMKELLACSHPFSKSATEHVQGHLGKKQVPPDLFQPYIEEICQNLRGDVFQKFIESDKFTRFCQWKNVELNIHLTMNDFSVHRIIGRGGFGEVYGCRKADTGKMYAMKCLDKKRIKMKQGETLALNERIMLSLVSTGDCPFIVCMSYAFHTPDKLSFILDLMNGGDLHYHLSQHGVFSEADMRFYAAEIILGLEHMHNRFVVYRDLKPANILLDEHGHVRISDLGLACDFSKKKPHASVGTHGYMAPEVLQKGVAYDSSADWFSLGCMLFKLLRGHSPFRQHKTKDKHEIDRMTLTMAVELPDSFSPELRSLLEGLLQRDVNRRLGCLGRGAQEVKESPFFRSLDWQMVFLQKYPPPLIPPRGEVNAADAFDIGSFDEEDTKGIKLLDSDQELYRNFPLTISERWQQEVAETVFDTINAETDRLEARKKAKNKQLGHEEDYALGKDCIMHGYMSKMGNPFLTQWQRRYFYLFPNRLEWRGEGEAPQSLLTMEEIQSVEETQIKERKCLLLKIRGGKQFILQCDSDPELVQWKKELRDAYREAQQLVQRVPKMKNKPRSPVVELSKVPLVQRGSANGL

Target: FLAG-tagged β2 adaptin (β2 subunit of adaptor protein complex 2) (UniProt P63010)
Test: co-IP; HEK-293 cells transfected with D2R and the FLAG-tagged bait, treated with vehicle or 10 μM DA (2 min; 2 and 5 min in Figure 8B); RIPA lysates, agarose beads with antibodies against FLAG 2–3 h at 4 °C; immunoblot of the co-precipitate

binding: no binding
Substance: 4KR-GRK2, untagged (GRK2 mutant lacking the Mdm2-mediated ubiquitination sites) (from UniProt P25098) (enzyme)
